# Microarray screen: hit calls

Source: the ROBIN nucleic acid binder screens (doi:10.1002/anie.202211358).

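Compounds were printed on reactive glass slides in duplicate spots, a dye-labelled oligonucleotide was laid over them, and the fluorescence left after washing was read. For the PreQ1, TPP and SAM-II riboswitches the laboratory earlier reported (doi:10.1038/s41467-019-09493-3) 1 µM RNA, 2 h, and a rule that included a mean Z-score above 3 (spot signal-to-noise against the whole library), a score well above that on a control array, and duplicate spots agreeing (coefficient of variation under 100). The data file gives only the calls; its cut-offs may differ, and compounds hitting several targets are kept. These are primary screening calls, not affinities; a compound without a hit may have attached poorly or may still bind in solution.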
A compound is marked hit if it was called a hit and none if it was screened but was not.
The compounds are a random part of those screened.
A target missing from an entry has no call listed here.

Targets (5′ to 3′):
SAM-II: SAM-II riboswitch RNA pseudoknot, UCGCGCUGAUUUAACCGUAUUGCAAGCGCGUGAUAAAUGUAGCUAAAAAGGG. About 200 hits among about 21,000 compounds.
PreQ1: PreQ1 riboswitch RNA pseudoknot, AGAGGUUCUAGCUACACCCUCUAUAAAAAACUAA. From B. subtilis. About 170 hits among about 24,000 compounds.
TPP: TPP riboswitch RNA three-way junction, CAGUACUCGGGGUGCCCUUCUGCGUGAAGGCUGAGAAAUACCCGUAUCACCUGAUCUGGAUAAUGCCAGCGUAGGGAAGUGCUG. About 160 hits among about 24,000 compounds.

{"compound": "O=C(c1cc2c(s1)CCCC2)N1CCOc2ccc(CO)cc2C1", "SAM-II": "none", "PreQ1": "none", "TPP": "none"}
{"compound": "CCCCCCN1CC2(CCN(C(=O)C3CNCCO3)CC2)OC1=O", "stereo": "stereo not given", "SAM-II": "none", "PreQ1": "none", "TPP": "none"}
{"compound": "CCOC(=O)c1cc(C(C)(C)C)oc1CN", "SAM-II": "none", "PreQ1": "none", "TPP": "none"}
{"compound": "CC(C)(C)c1ccc(S(=O)(=O)c2nn[nH]c2Nc2ccc(F)cc2)cc1", "SAM-II": "none", "PreQ1": "none", "TPP": "none"}
{"compound": "CSc1nc(=O)c(/N=N/c2ccc([As](=O)(O)O)cc2)c(N)[nH]1", "SAM-II": "none", "PreQ1": "none", "TPP": "none"}
{"compound": "CCOC(=O)N1CCC(N2CC[C@@H](NC(=O)c3cccnc3)[C@H](O)C2)CC1", "SAM-II": "none", "PreQ1": "none", "TPP": "none"}
{"compound": "O=C1/C(=C/c2ccc([N+](=O)[O-])cc2)CCc2ccccc21", "SAM-II": "none", "PreQ1": "none", "TPP": "none"}
{"compound": "O=[N+]([O-])c1ccc(OCC(O)CNc2ccccc2)cc1", "stereo": "stereo not given", "SAM-II": "none", "PreQ1": "none", "TPP": "none"}
{"compound": "O=C(NCCCO)c1nnc(Cc2c(F)cccc2Cl)o1", "SAM-II": "none", "PreQ1": "none", "TPP": "none"}
{"compound": "Cc1cccc(-c2ncc(CN3CCN(c4cc(O)nc(N)n4)CC3)cn2)c1", "SAM-II": "none", "PreQ1": "none", "TPP": "none"}
{"compound": "CCC1=C(C)C=[N+]=C(NCC(O)c2cccc(C(F)(F)F)c2)N1", "stereo": "stereo not given", "SAM-II": "none", "PreQ1": "none", "TPP": "none"}
{"compound": "CCc1nc(CN2CCC3(CCC(=O)N(CCO)C3)CC2)no1", "SAM-II": "none", "PreQ1": "none", "TPP": "none"}
{"compound": "Cc1nc(N)nc(NCCc2n[nH]c(N)n2)c1CCC(=O)O", "SAM-II": "none", "PreQ1": "none", "TPP": "none"}
{"compound": "O=C(O)[C@H]1O[C@H](Oc2cc3oc(-c4ccccc4)cc(=O)c3c(O)c2O)[C@H](O)[C@@H](O)[C@H]1O", "SAM-II": "none", "PreQ1": "none", "TPP": "none"}
{"compound": "CCN(Cc1noc(CC(C)C)n1)Cc1cc(C#CCO)cs1", "SAM-II": "none", "PreQ1": "none", "TPP": "none"}
{"compound": "Cc1ccc(CSc2nnc([C@@H](N)C(C)C)o2)cc1", "SAM-II": "none", "PreQ1": "none", "TPP": "none"}
{"compound": "CC(NC1CCN(c2ncnc3[nH]cnc23)CC1)c1nnc(N)s1", "stereo": "stereo not given", "SAM-II": "none", "PreQ1": "none", "TPP": "none"}
{"compound": "CC(=NNC(=O)CCc1c(C)n[nH]c1C)c1ccc(N)cc1", "SAM-II": "none", "PreQ1": "none", "TPP": "none"}
{"compound": "Nc1c(C(=O)c2ccc(F)cc2)sc2nc(-c3ccncc3)ccc12", "SAM-II": "none", "PreQ1": "hit", "TPP": "none"}
{"compound": "O=C(c1[nH]cnc1-c1ccccc1)N1CC[C@H](CO)[C@H](O)C1", "SAM-II": "none", "PreQ1": "none", "TPP": "none"}
{"compound": "O=C1C2C3c4ccccc4C(c4ccccc43)C2C(=O)N1CCO", "stereo": "stereo not given", "SAM-II": "none", "PreQ1": "none", "TPP": "none"}
{"compound": "COc1ccc(C2C(C#N)=C(N)OC3=C2C(=O)CCC3)c(OC)c1OC", "stereo": "stereo not given", "SAM-II": "none", "PreQ1": "none", "TPP": "none"}
{"compound": "Cc1ccc(-n2nc(CO)c(C(=O)NCc3ccccc3)n2)cc1C", "PreQ1": "none", "TPP": "none"}
{"compound": "COC(=O)CN1CCC(NC2CCNC2(C)C)CC1", "stereo": "stereo not given", "SAM-II": "none", "PreQ1": "none", "TPP": "none"}
{"compound": "NC(=O)c1ccc(-c2nc(-c3ccc4c(c3)OCO4)c(-c3ccccn3)[nH]2)cc1", "SAM-II": "none", "PreQ1": "none", "TPP": "none"}
{"compound": "CC(C)CCNc1nc2ccccc2c2nc(-c3cccnc3)nn12", "PreQ1": "none", "TPP": "none"}
{"compound": "CCc1cc2c(cc1N1CCC(N3CCOCC3)CC1)C(C)(C)c1[nH]c3cc(C#N)ccc3c1C2=O", "SAM-II": "none", "PreQ1": "none", "TPP": "none"}
{"compound": "Cc1cc(C)n2c(Nc3ccc4c(c3)OCCO4)c(-c3ccc(C)o3)nc2n1", "SAM-II": "none", "PreQ1": "none", "TPP": "none"}

The last 2 entries again:

| Compound | SAM-II | PreQ1 | TPP |
|---|---|---|---|
| `CCc1cc2c(cc1N1CCC(N3CCOCC3)CC1)C(C)(C)c1[nH]c3cc(C#N)ccc3c1C2=O` | none | none | none |
| `Cc1cc(C)n2c(Nc3ccc4c(c3)OCCO4)c(-c3ccc(C)o3)nc2n1` | none | none | none |